Results published in patent publication US20260174905A1, “COMPOSITIONS AND METHODS FOR IMPROVED ADENOVIRAL-BASED GENE THERAPY UTILIZING CORT[…]” (Pacira Therapeutics, Inc., priority 2023, published 2026).
At least one structure is not confirmed: it was looked up by name or label, or the drawing left a doubt.

What was measured:
[1] = test system: 116 cells; test: HDAd-LacZ infection with corticosteroid, X-Gal staining for LacZ expression in 116 cells; format: cell-based; details: simultaneous exposure to TAC at 428.5 µg/mL and 0.36 μg/mL with HDAd-LacZ
[2] = test system: HEK293 cells; test: HDAd-LacZ infection with corticosteroid, X-Gal staining for LacZ expression in HEK293 cells; format: cell-based
Experimental: Methods: 116 cells or HEK293 cells were seeded in 12-well or 96-well plates in standard cell culture media. One day later, cells were infected with the gene therapy vector HDAd-LacZ (a helper-dependent adenoviral vector expressing beta-galactosidase (LacZ) under the control of the constitutive CMV promoter) at different multiplicities of infections (MOIs; virus particles per cells seeded) mixed with different amounts/concentrations of the corticosteroids triamcinolone acetonide (TAC; TriamHEXAL®, Hexal AG, Holzkirchen, Germany), betamethasone (Celestan®, MSD, Kenilworth, NJ, USA), or dexamethasone (Lipotalon®, Recordati, Milan, Italy). HDAd-LacZ was produced by GeneQuine Biotherapeutics GmbH (HDAd-LacZ originally sourced from Baylor College of Medicine, USA). In an experiment evaluating different timing or administration of the corticosteroid relative to administration of the HDAs-LacZ, cells were either pre-treated with TAC 3 hours prior to infection with HDAd-LacZ (PRE), TAC treatment and HDAd-LacZ infection was done simultaneously as described above (SIMULTANEOUS), or cells were treated with TAC 3 hours post infection with HDAd-LacZ (POST). One day later, supernatants were aspirated and cell monolayers were stained for LacZ expression using the X-Gal staining kit according to manufacturer's manual (OZ Bioscience, Marseille, France). Macroscopic and microscopic (at 4× or 10× magnification) photos of the stained monolayers were taken (blue staining indicates LacZ expression). A preliminary measure of intensity of the staining was semi-quantitatively measured using ImageJ software by converting the images to 8-bit grayscale and drawing regions of interest around the areas to be measured. The mean intensity values (on a scale of 0-255; 0 being black and 255 being white) were subtracted from 255, divided by 255 and multiplied by 100, i.e. reported values were on a scale of 0-100 (0 being white and 100 being black) where higher values indicate more intense (darker) staining.

[3] = HDAd-LacZ + betamethasone or dexamethasone, 4000 ng/ml-0.0038 ng/mL

SMILES	HDAd-mediated LacZ expression [1]	HDAd-mediated LacZ expression ([2]; simultaneous exposure to TAC at 428.5 µg/mL and 0.36 μg/mL with HDAd-LacZ, X-Gal staining)	HDAd-mediated LacZ expression [2, 3]
CC1(C)O[C@@H]2C[C@H]3[C@@H]4CCC5=CC(=O)C=C[C@]5(C)[C@@]4(F)[C@@H](O)C[C@]3(C)[C@]2(C(=O)CO)O1 [TAC, triamcinolone acetonide]	markedly increased	markedly increased	
C[C@H]1C[C@H]2[C@@H]3CCC4=CC(=O)C=C[C@]4(C)[C@@]3(F)[C@@H](O)C[C@]2(C)[C@@]1(O)C(=O)CO [betamethasone]			increased
C[C@@H]1C[C@H]2[C@@H]3CCC4=CC(=O)C=C[C@]4(C)[C@@]3(F)[C@@H](O)C[C@]2(C)[C@@]1(O)C(=O)CO [dexamethasone]			increased
